The target in assay [1] is human G protein-coupled receptor class C group 5 member D (GPRC5D) protein (human) (UniProt Q9NZD1). Description: flow cytometry on CHO-GPRC5D cells, with and without pre-bound G5VHH2-hIgG1Fc as competitor. On the technique in general: In flow cytometry, cells or beads pass a laser one at a time.
The target is the same in assay [2]. Description: flow cytometry on CHO-GPRC5D cells, anti-6xHis detection; G5VHH1-his titrated alone and on cells pre-incubated with a fixed concentration of G5VHH2-hFc.

Amino acid sequences for entries named in this document (tags omitted).
UniProt Q9NZD1: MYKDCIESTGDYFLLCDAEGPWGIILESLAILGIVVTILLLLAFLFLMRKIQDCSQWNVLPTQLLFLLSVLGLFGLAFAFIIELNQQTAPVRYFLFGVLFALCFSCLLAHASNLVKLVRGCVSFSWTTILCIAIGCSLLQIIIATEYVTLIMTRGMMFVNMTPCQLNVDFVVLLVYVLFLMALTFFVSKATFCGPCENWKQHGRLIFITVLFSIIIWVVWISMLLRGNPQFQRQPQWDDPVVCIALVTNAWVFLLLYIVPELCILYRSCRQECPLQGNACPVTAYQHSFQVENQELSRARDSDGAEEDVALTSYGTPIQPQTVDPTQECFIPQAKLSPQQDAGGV

No constants are given. Whether binding was seen depends on the method and setting. Some entries that bind do so weakly or less than the wild type. Tags and fused reporters may be left off the sequences shown.

B1: G5VHH1-His (VHH)
VHH: EVQLVESGGGLVQPGGSLRLSCAASGRIFSRDAMGWFRQAPGKGRELVAAINSSGGNTYYPDSVEGRFTISRDNAKRMVYLQMNSLRAEDTAVYYCAARGVRWTSTTAYGYNYWGQGTQVTVSS
Take B1: the binding result in assay [1] and in assay [2] was “binds” in each case.

Source of the values: patent US20250057950A1 (ORICELL THERAPEUTICS, published 2025).
